14 compounds from patent publication US6706528B2, “Fluorescent magnesium indicators” (The United States of America as represented by the …, priority 2000, dated 2004) can be followed below.

This data set in a line: fluorescence/Mg2+ titration of the indicators (emission spectra, apparent dissociation constants). The data set is classed as binding. The following applies: for Emission, fluorescence maximum upon saturation of the indicator: after the arrow, saturated with Mg^2+; for Emission, fluorescence maximum upon saturation of the indicator / Emission, fluorescence maximum of the free indicator: pH 7.2; for Emission, fluorescence maximum of the free indicator: before the arrow; for bathochromic shift of the fluorescence emission upon binding Mg^2+: free versus Mg^2+-saturated indicator; for crossover point of the emission spectra: Mg^2+ titration.

Entries after “also recorded” stand apart in the source; their conditions may differ.

Consider “1-[N,N-di(carboxymethyl)]-4-oxo-4H-quinolizine-3-carboxylic acid [Compound 11a]”, for which the “Emission, fluorescence maximum upon saturation of the indicator” value (shortened to “Emission … of the indicator”) was found to be 548 nm; the “Emission, fluorescence maximum of the free indicator” value (shortened to “Emission … of the free indicator”) worked out at 552 nm; the “bathochromic shift of the fluorescence emission upon binding Mg^2+” value (“bathochromic shift” below) was 4 nm. For the same compound, for the setting “free indicator versus 1a”, the “hypsochromic shift of the fluorescence maximum with respect to 4-oxo-4H-quinolizine-3-carboxylic acid (1a)” value is on record as 117 nm. In addition, the “change of the fluorescence emission when binding Mg^2+” value (increasing Mg^2+ levels) was “increase of the fluorescence emission”.
In the case of `O=C(O)c1ccc2ccccn2c1=O` [Compound 1a, 4-oxo-4H-quinolizine-3-carboxylic acid], the “crossover point of the emission spectra” value turned out to be 437 nm; the “Emission … of the indicator” value came to 408 nm; the “Emission … of the free indicator” value is 435 nm; the “bathochromic shift” value is 23 nm.
`O=C(O)c1ccc2cc(Cl)ccn2c1=O` [Compound 2a, 4-oxo-8-chloro-4H-quinolizine-3-carboxylic acid]: the “Emission … of the indicator” value is on record as 418 nm and the “Emission … of the free indicator” value stood at 445 nm.
For the compound `O=C(O)c1ccc2ccc3ccccc3n2c1=O` [Compound 3a, [6,7]benzo-4-oxo-4H-quinolizine-3-carboxylic acid], the “Emission … of the indicator” value was determined as 467 nm and the “Emission … of the free indicator” value is given as 485 nm.
In the case of `O=C(O)c1cc(Br)c2ccccn2c1=O` [Compound 9a, 1-bromo-4-oxo-4H-quinolizine-3-carboxylic acid], the “separation of the fluorescence maxima of free and Mg^2+-bound indicator” value (“separation … of free and Mg^2+-bound indicator” below) is given as “well-separated fluorescence maxima; also recorded: fully separated fluorescence maxima”; the “crossover point of the emission spectra” value was 446 nm; the “Emission … of the indicator” value came to 442 nm; the “Emission … of the free indicator” value worked out at 460 nm. For the same compound, the “bathochromic shift” value is on record as 18 nm.
Turning to `O=C(O)C(=Cc1cc(C(=O)O)c(=O)n2ccccc12)C(=O)O` [Compound 12a, 1-(2,2-dicarboxyvinyl)-4-oxo-4H-quinolizine-3-carboxylic acid], the “Emission … of the indicator” value is 461 nm and the “Emission … of the free indicator” value stood at 466 nm.
Turning to `O=C(O)c1cc(CC(C(=O)O)C(=O)O)c2ccccn2c1=O` [Compound 13a, 1-(2,2-dicarboxyethyl)-4-oxo-4H-quinolizine-3-carboxylic acid], the “Emission … of the indicator” value is 429 nm and the “Emission … of the free indicator” value was 456 nm.
Regarding `Nc1ccn2c(=O)c(C(=O)O)ccc2c1` [Compound 15a, 8-amino-4-oxo-4H-quinolizine-3-carboxylic acid], the “Emission … of the indicator” value is 396 nm and the “Emission … of the free indicator” value is recorded as 406 nm.
Turning to `O=C(O)Cc1ccn2c(=O)c(C(=O)O)ccc2c1` [Compound 19a, 8-(carboxymethyl)-4-oxo-4H-quinolizine-3-carboxylic acid], the “separation … of free and Mg^2+-bound indicator” value is “overlap of the fluorescence spectra”; the “Emission … of the indicator” value is 410 nm; the “Emission … of the free indicator” value came out at 432 nm.
For `O=C(O)CC(C(=O)O)c1ccn2c(=O)c(C(=O)O)ccc2c1` (stereo not drawn) [Compound 20a, 8-(1,2-dicarboxyethyl)-4-oxo-4H-quinolizine-3-carboxylic acid], in that order: “overlap of the fluorescence spectra”, 411 nm and 432 nm.
As for `O=C(O)CC(C(=O)O)c1ccn2c(=O)c(C(=O)O)cc(Br)c2c1` (stereo not drawn) [Compound 21a, 1-bromo-8-(1,2-dicarboxyethyl)-4-oxo-4H-quinolizine-3-carboxylic acid], the “separation … of free and Mg^2+-bound indicator” value is “well-separated fluorescence maxima; also recorded: fully separated fluorescence maxima”; the “crossover point of the emission spectra” value amounted to 451 nm; the “Emission … of the indicator” value was 437 nm; the “Emission … of the free indicator” value is on record as 463 nm. For the same compound, the “bathochromic shift” value is on record as 26 nm.
With `COc1ccc(-c2ccn3c(=O)c(C(=O)O)ccc3c2)cc1` [Compound 22a, 8-(4-methoxyphenyl)-4-oxo-4H-quinolizine-3-carboxylic acid], the “Emission … of the indicator” value turned out to be 444 nm and the “Emission … of the free indicator” value worked out at 470 nm.
On to `O=C(O)c1ccc2cc(-c3cccc4ccccc34)ccn2c1=O` [Compound 23a, 8-(naphth-1-yl)-4-oxo-4H-quinolizine-3-carboxylic acid], for which the “Emission … of the indicator” value is 456 nm and the “Emission … of the free indicator” value came to 490 nm.
As to `O=C(O)c1ccc2cc(-c3cc4ccccc4o3)ccn2c1=O` [Compound 24a, 8-benzo[b]furyl-4-oxo-4H-quinolizine-3-carboxylic acid], the “Emission … of the indicator” value turned out to be 459 nm; the “Emission … of the free indicator” value turned out to be 496 nm; the “bathochromic shift” value was 37 nm.
